Values of other authors in patent US20200129524A1, “PERSONALIZED CONTRACEPTIVE FORMULATIONS” (Agile Therapeutics, Inc., priority 2017, published 2020).
Some results were stated once for a whole list of compounds, not compound by compound.

Target: T1, SHBG (Homo sapiens, UniProt P04278)
T1 sequence (P04278 30-402): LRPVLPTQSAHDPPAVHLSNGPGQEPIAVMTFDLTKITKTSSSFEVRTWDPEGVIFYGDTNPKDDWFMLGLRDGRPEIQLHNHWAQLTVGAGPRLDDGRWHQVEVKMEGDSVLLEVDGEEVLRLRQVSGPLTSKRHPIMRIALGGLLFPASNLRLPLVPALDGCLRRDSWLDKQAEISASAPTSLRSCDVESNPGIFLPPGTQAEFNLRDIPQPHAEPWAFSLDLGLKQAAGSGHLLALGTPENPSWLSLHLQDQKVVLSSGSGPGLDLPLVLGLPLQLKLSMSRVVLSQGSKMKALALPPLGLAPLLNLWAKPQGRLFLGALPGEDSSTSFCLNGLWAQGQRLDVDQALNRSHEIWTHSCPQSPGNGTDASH
Details: testosterone being 100; cited from earlier work

medroxyprogesterone
relative binding affinity to SHBG: less than 20%
